In patent US20240352100A1 (AJOU UNIVERSITY INDUSTRY ACADEMIC COOPERATION FOUNDATION, published 2024) one finds binding data, which are given here for one molecule.

For this experiment, the target named is IL-4R. Description: ELISA: antibody coated at 5 µg/ml, soluble IL-4R 1 µM as control antigen, A450. (ELISA stands for enzyme-linked immunosorbent assay.)

No constants are given. Whether binding was seen depends on the method and setting.

B1: inBC2 (antibody, V domains shown)
VH: QVQLVESGGGVVQPGRSLRLSCAASGFTFSSYPMHWVRQAPGKGLEWVAVVSYDGSYKYYADSVKGRLTISRDNSKNTLYLQMNSLRAEDTAVYYCARATVRGVTKIRGVFDSWGQGTLVTVSS
VL: DYQLTQSPSSLSASVGDRVTITCKSSQSLLNSRDGKNYLAWYQQKPGKAPKMLIYWASTRESGVPSRFSGSGSGTDFTLTISSLQPEDFATYFCQQYWYWMFTFGQGTKVEIKR
notes: Complete immunoglobulin; FR4 back-mutated form of inBC0; also called anti-β-catenin cytosol-penetrating interfering antibody inBC2; anti-β-catenin iMab
Take B1: the binding result is reported as “no binding (tested: 1 µM)”.
